In article PMC3422304 one finds binding data, which are given here for 1 molecule.

The target in the test is Pcf11-myc (Schizosaccharomyces pombe). Briefly: co-IP; total cell lysates of S. pombe strains expressing Rhn1-PK alone or with Dhp1-myc, Din1-myc or Pcf11-myc; immunoprecipitation with anti-myc; immunoprecipitates and inputs analysed on Western blots. For orientation: A western blot detects proteins with antibodies after separation by electrophoresis.

No constants are given. Whether binding was seen depends on the method and setting. Binding seen in cells or lysates may run through a third protein. Binding calls can cover weak binding; strength is not graded here.

B1: Rhn1-PK (protein, UniProt O74814 1-387)
chain: MALTPDTVSSKLATLNETQESITGIAHWVMFHKRYADEIVQIWLEALYESSSNKKLLLLYLLNEVVQQSRVKKISEYIDAVSPYVVNSVADAYASVPASIKTKIKYVFDVWCQRGIFSKEILLSLQERFNNAENSGHSNYYPVGPPEWAPYTRLMTQTSLYAKSAHSTKTVVDALYKSYLEKQSDYSELLDNYKKQLNKASESCKGNYQACIESRSTLITSLESLIEEQKKLLSEEEESLKSVESIISNLENKESTTATSTLTDAGFGDKSSTAGKHNVETTSPPSSSPNSDDAYSPQVDSYSPSINSVPYTSNIVENPSEDNLSPLPPPASGPYSQEEEETSLFKSQRKEENEEESKELPEDSDIYGKDSSPSSDDSSAAGLYGDS
Consider B1, for which the binding entry was “binds”.
